Data on 2 substances can be found in PMC13529552.

The chains behind the UniProt entries cited, without tags or fusion partners.
UniProt P62136: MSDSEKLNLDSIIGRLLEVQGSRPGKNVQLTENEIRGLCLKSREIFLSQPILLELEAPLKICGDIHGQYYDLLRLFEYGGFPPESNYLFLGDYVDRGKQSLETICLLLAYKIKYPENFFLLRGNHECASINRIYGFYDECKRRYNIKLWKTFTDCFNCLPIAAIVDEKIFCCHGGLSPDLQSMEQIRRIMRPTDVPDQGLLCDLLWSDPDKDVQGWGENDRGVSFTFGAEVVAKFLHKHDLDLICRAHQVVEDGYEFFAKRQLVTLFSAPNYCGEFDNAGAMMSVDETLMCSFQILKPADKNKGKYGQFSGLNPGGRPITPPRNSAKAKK
UniProt P67775: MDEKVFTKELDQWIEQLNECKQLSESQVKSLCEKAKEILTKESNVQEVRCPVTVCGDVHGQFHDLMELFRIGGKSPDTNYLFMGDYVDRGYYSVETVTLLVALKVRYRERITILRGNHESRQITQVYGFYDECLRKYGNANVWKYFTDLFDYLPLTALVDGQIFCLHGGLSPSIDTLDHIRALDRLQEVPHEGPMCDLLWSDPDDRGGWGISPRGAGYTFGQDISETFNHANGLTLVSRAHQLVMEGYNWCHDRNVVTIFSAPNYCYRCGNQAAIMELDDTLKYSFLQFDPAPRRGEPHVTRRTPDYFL

No constants are given. Whether binding was seen depends on the method and setting. Binding seen in cells or lysates may run through a third protein. Some entries that bind do so weakly or less than the wild type. Where a sequence is shown, tags or fusion partners need not be part of it.

The assay addresses T1, Flag-GSDMD (gasdermin D) (mouse (from the plasmid name mGSDMD)) (UniProt Q9D8T2).
T1 sequence: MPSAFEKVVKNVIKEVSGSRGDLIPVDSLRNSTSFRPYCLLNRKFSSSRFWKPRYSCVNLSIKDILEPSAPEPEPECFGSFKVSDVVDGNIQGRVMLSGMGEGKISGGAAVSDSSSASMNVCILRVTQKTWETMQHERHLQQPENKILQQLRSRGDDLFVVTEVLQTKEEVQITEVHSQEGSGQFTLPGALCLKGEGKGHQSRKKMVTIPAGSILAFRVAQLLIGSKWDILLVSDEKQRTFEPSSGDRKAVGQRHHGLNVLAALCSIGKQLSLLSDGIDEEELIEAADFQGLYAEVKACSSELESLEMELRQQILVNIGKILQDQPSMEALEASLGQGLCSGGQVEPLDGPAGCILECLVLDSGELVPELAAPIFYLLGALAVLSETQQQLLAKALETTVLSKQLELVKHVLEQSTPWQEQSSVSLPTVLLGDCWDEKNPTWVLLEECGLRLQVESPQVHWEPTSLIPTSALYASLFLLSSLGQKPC
The assay is described as follows: co-IP; anti-Flag immunoprecipitation from HEK293 cells co-transfected with Flag-GSDMD and/or HA-PP1α or HA-PP2α, followed by immunoblot; EBC lysis buffer (50 mM Tris pH 7.5, 120 mM NaCl, 0.5% NP-40). Background: In western blotting, separated proteins are transferred to a membrane and probed.

As for “HA-PP1α (from UniProt P62136 1-330) (enzyme)”, the binding result was “binds”.
“HA-PP2α (from UniProt P67775 1-309) (enzyme)”: the binding entry is given as “binds”.
